Measured values reported in PubChem BioAssay AID1347076 (National Center for Advancing Translational Sciences (NCATS), 2019).
Hit rate of the full screen: of about 400,000 compounds, about 13,000 (3.2%) were called active. The shares of active, inactive and inconclusive entries below differ from those in the screen. The call rests on the fitted dose curve; in most records, active means well fitted cell-killing curve with a large enough effect; inconclusive means small, poorly fitted or top-dose-only effect, or effect the other way; inactive means flat fitted curve, though single readings scatter. A potency beside an inconclusive call is a rough fit, not a confirmed value. Where a SMILES comes first, the peptide text is derived from it. The star is where a group is joined. Cbz = O=C(OCc1ccccc1)*

Assay: qHTS assay for MDR1-selective chemotherapeutics: Primary screen using the drug-selected MDR subline cells KB-V1; further: nearly all actives have a fitted effect of over 60% in size
Conditions: KB-V1 MDR cells viability, CellTiter-Glo, 72 h; activity change, negative = cytotoxicity: at 46.1 µM (top of the series)
Method in brief: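 Readout: CellTiter-Glo luminescence, 10 min after addition. Cells: KB-V1 MDR subline, 72 h at 37 degrees C with compound. Analysis: corrected, normalized data fitted to concentration-effect curves.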
On the % scale 0 is the no-effect control and ±100 the full control effect; potency means the concentration at half of the fitted maximal effect.

Row | Compound | activity change, negative = cytotoxicity | Potency
1 | COc1ccc(OC)c(NCc2nnc(-c3ccccc3)o2)c1 | inconclusive: -16.5% | 
2 | COc1cc(CNc2ccc3c(c2)OCCO3)ccc1OCC(N)=O |  | inconclusive: 29.1 µM [rising, single point]
3 | COc1ccc(CCNC(=O)CSCc2ccc(Cl)cc2)cc1OC |  | active: 6.51 µM
4 | COC(=O)c1c(NC(=O)c2ccoc2C)sc(C)c1C |  | inconclusive: 18.4 µM [rising, partial curve, poor fit]
5 | Cn1cc(S(=O)(=O)Cc2ccc(F)cc2)c2ccccc21 | inactive: -23.6% | 
6 | Cc1ccc(N=C2NC(=O)/C(=C/c3cccn3C)S2)c(C)c1 |  | active: 23.1 µM
7 | Oc1ccc(-c2nc3ncccn3c2Nc2ccc3c(c2)OCO3)cc1 | inactive: 14.4% | 
8 | c1ccc(-c2ncnc3nc4n(c23)CCC4)cc1 | inactive: 0.584% | 
9 | CCCC(=O)N1CCCC1(C)C(=O)NCc1ccc(F)cc1Cl (centres undefined) | inactive: -0.623% | 
10 | Cc1ccc(N=C2NC(=O)/C(=C/c3cccs3)S2)cc1C |  | inconclusive: 18.4 µM [cytotoxic, single point]
11 | COc1ccc(Cl)cc1C1=NOC2(CCC2)C(=O)N1Cc1cccc(C#N)c1 |  | inconclusive: 9.2 µM [cytotoxic, partial curve]
12 | Cc1ccc(S(=O)(=O)N2CCN(C(=O)CCCOc3ccc(Cl)cc3C)CC2)cc1 |  | inconclusive: 0.731 µM [cytotoxic, full curve, poor fit]
13 | CCOCCCNc1nc2nc3ccc(C)cn3c(=O)c2cc1C(=O)NCC1CCCO1 (centres undefined) | inactive: -5.82% | 
14 | CCn1c(=O)n(CC)c2cc(S(=O)(=O)NCCOc3ccccc3)c(C)cc21 |  | inconclusive: 29.1 µM [cytotoxic, single point]
15 | Brc1ccc(-n2c(SCc3nc4ccccc4[nH]3)nnc2-c2ccncc2)cc1 |  | inconclusive: 23.1 µM [cytotoxic, single point]
16 | COc1cc(C(=O)NCC(C)C)cc(OC)c1OC |  | inconclusive: 20.6 µM [cytotoxic, single point]
17 | COCCCNC(=S)NC(=O)c1ccc(C)cc1 |  | active: 18.4 µM
18 | O=C(NC(NNc1ccc([N+](=O)[O-])cc1)(C(F)(F)F)C(F)(F)F)c1ccc(F)cc1 |  | inconclusive: 18.4 µM [cytotoxic, single point]
19 | COc1ccc(NS(=O)(=O)c2ccc(O)c(C(=O)OCC(=O)N3CC(C)OC(C)C3)c2)cc1 (centres undefined) |  | inconclusive: 0.92 µM [rising, single point]
20 | COc1cccc(CNS(=O)(=O)c2ccc(S(=O)(=O)N3CCCC3)cc2)c1 | inactive: -23.4% | 
21 | COc1ccc(NC(=O)c2ccc(Cl)nc2)cc1S(=O)(=O)N1CCCCC1 |  | inconclusive: 16.4 µM [cytotoxic, partial curve]
22 | COc1ccc(S(=O)(=O)N2CCOCC2)cc1NC(=O)Cc1ccc2c(c1)OCCO2 |  | active: 18.4 µM
23 | Cc1ccc(NC(=O)c2cc3cc(C)ccc3n2C)cc1 | inactive: 0% | 
24 | CCOC(=O)c1cc(-c2nnc(-c3cc(OC)c(OC)c(OC)c3)o2)c(C)nc1C |  | inconclusive: 23.1 µM [cytotoxic, partial curve]
25 | NC(=O)CSc1oc(-c2ccco2)nc1S(=O)(=O)c1ccc(Cl)cc1 |  | inactive

For convenience, 3 of the compounds above.
Row | Compound | activity change, negative = cytotoxicity | Potency
21 | COc1ccc(NC(=O)c2ccc(Cl)nc2)cc1S(=O)(=O)N1CCCCC1 |  | inconclusive: 16.4 µM [cytotoxic, partial curve]
22 | COc1ccc(S(=O)(=O)N2CCOCC2)cc1NC(=O)Cc1ccc2c(c1)OCCO2 |  | active: 18.4 µM
23 | Cc1ccc(NC(=O)c2cc3cc(C)ccc3n2C)cc1 | inactive: 0% | 

Additional structures follow.

Row | Compound | activity change, negative = cytotoxicity | Potency
26 | CCOC(=O)C1(CCOc2ccccc2)CCN(CC(O)CO)CC1 (centres undefined) | inactive: -5.65% | 
27 | CN(C)CCCCOc1ccc(F)cc1 | inactive: 12.1% | 
28 | CCC1CCCCN1C(=O)Cn1c(=O)oc2cc(S(=O)(=O)N3CCCCC3)ccc21 (centres undefined) | inactive: 2.07% | 
29 | COc1ccc(F)cc1C(=O)C1CCCN(Cc2cn(C)c3ccccc23)C1 (centres undefined) | inactive: -8.38% | 
30 | CCOCC(=O)Nc1c(C(=O)OCC)oc2ccccc12 | inactive: 3.47% | 
31 | Cc1nn(Cc2ccccc2Cl)c(C)c1NC(=O)c1cc(C(C)C)on1 |  | inconclusive: 5.8 µM [cytotoxic, full curve, poor fit]
32 | CCOC(=O)[C@@H](CCc1ccccc1)N[C@H](C)C(=O)N1[C@H](C(=O)O)C[C@@H]2CCC[C@@H]21 |  | inconclusive: 3.26 µM [cytotoxic, partial curve]
33 | CCOc1ccc(N(CC(=O)N2CCN(c3ccccc3OC)CC2)S(=O)(=O)c2ccc(C)cc2)cc1 |  | inconclusive: 1.03 µM [cytotoxic, partial curve, poor fit]
34 | OC(COc1ccccc1)CN1CCN(C(c2ccccc2)c2ccccc2)CC1 (centres undefined) |  | inconclusive: 23.1 µM [rising, partial curve, poor fit]
35 | Cc1ccc(C(C(=O)NC2CCCC2)N2CCCCC2)cc1 (centres undefined) | inactive: 15.9% | 
36 | CCc1nnc(NC(=O)C2CCN(c3cnccn3)CC2)s1 | inactive: -26.6% | 
37 | Cc1cc(Cl)n2nc(C)c(-c3ccc(Cl)cc3)c2n1 | inactive: 0.327% | 
38 | COc1cc2c(oc(=O)c3cc(C)cc(OC)c32)c2c(C3OC(C)C(O)C(C)(O)C3O)ccc(O)c12 (centres undefined) |  | inconclusive: 14.6 µM [cytotoxic, partial curve, poor fit]
39 | Nc1c(C(=O)N2CCOCC2)sc2nc(N3CCOCC3)c3c(c12)CCCC3 | inactive: -27.3% | 
40 | O=C(CSc1n[nH]c(-c2cccs2)n1)N1CCCc2ccccc21 |  | inconclusive: 29.1 µM [cytotoxic, single point]
41 | COc1cccc(CNC(=O)CCS(=O)(=O)c2cccs2)c1 | inactive: 16% | 
42 | COc1ccccc1N=Nc1c(C)[nH][nH]c1=O |  | inconclusive: 23.1 µM [cytotoxic, single point]
43 | COC(=O)c1cnc2c(c(C)nn2C)c1OC |  | inconclusive: 29.1 µM [cytotoxic, single point]
44 | CCn1c(O)c(N=NC(=O)CNC(=O)c2ccccc2F)c2ccccc21 |  | inconclusive: 18.4 µM [cytotoxic, single point]
45 | O=C(COc1cccnc1[N+](=O)[O-])N1CCN(C(=O)c2ccco2)CC1 |  | inconclusive: 7.31 µM [rising, partial curve, poor fit]
46 | C=CCC1(O)C(=O)Nc2ccccc21 (centres undefined) |  | inconclusive: 11.6 µM [rising, partial curve, poor fit]
47 | CC(CNC(=O)c1ccccc1[N+](=O)[O-])NC(=O)c1ccccc1[N+](=O)[O-] (centres undefined) | inactive: 2% | 
48 | CC(C)CCN1CCN(Cc2cnc(-c3ccccc3)s2)CC1CCO (centres undefined) |  | inconclusive: 20.6 µM [cytotoxic, single point]
49 | CCn1ncc(NC(=S)Nc2ccc3c(c2)OCO3)c1C(N)=O |  | inconclusive: 23.1 µM [rising, partial curve, poor fit]
50 | COc1ccc(C2=NOC(C(=O)N3CCCc4ccccc43)C2)cc1 (centres undefined) |  | active: 13 µM

Row | Compound | activity change, negative = cytotoxicity | Potency
51 | CCCN1C(=O)c2[nH]nc(-c3ccccc3O)c2C1c1ccc(OCc2ccccc2)c(OC)c1 (centres undefined) |  | inconclusive: 29.1 µM [cytotoxic, single point]
52 | COc1ccc(CCNc2ncnc3nc[nH]c23)cc1 | inactive: 3.14% | 
53 | COc1ccc(NC(=O)CSc2nnc(-c3ccco3)n2N)cc1Cl | inactive: 18.1% | 
54 | COc1ccc(CCNC(=O)c2cc(-c3cc(C)ccc3O)n[nH]2)cc1OC |  | inconclusive: 0.0046 µM [cytotoxic, full curve, poor fit]
55 | O=C(Nc1cccc(NC(=O)c2cccs2)c1)c1ccc2c(c1)OCO2 |  | inconclusive: 10.3 µM [cytotoxic, partial curve, poor fit]
56 | CC1(C)Cc2ccccc2C(N/N=C/c2ccc(Cl)cc2)=N1 |  | active: 14.6 µM
57 | Cc1cccc(S(=O)(=O)Nc2nc3ccccc3nc2OC(C)C)c1 | inactive: 24.5% | 
58 | O=C(Nc1ccncc1)Nc1cccc(F)c1 | inactive: 0% | 
59 | CC(C)c1nc(N2CCN(C(=O)c3ccco3)CC2)c(C#N)c2c1COC(C)(C)C2 |  | active: 18.4 µM
60 | CCOc1ccc(Oc2c(/C=N/NC(=O)COc3ccccc3OC)c(C)nn2-c2ccccc2)cc1 |  | inconclusive: 29.1 µM [cytotoxic, single point]
61 | COc1cccc(CN(C)C(=O)CCNC(=O)c2ccco2)c1 | inactive: 7.64% | 
62 | CC(C)COC(=O)N1CCCCC1c1cc(C(=O)NCc2cccnc2)no1 (centres undefined) | inactive: 2.73% | 
63 | CCOC(=O)CSC1=C(C#N)C(c2ccc(Cl)cc2)CC(=O)N1 (centres undefined) | inactive: -22.1% | 
64 | CCN(CC)CCCNC(=O)c1cn(CC)c2ccc(S(=O)(=O)N(C)C3CCCCC3)cc2c1=O |  | inconclusive: 23.1 µM [rising, partial curve]
65 | CCOC(=O)N1CCC(N(CCN(C)C)C(=S)Nc2ccccc2OCC)CC1 |  | inconclusive: 3.66 µM [cytotoxic, partial curve]
66 | Cc1ccc(S(=O)(=O)N2CCCCC2)cc1NC(=O)CNC(C)c1ccc(Cl)c(Cl)c1 (centres undefined) | inactive: -28.6% | 
67 | O=C(CSCCc1ccccn1)Nc1cccnc1Cl |  | inconclusive: 29.1 µM [cytotoxic, single point]
68 | COC(=O)[C@@]1(Cc2ccc(F)cc2)[C@H]2c3cc(C(=O)N4CCCC4)n(CCF)c3C[C@H]2CN1C(=O)c1ccccc1 |  | inconclusive: 25.9 µM [cytotoxic, partial curve, poor fit]
69 | C=CCn1c(SCc2ccc(C(=O)NCCO)cc2)nc2sc(C)c(C)c2c1=O |  | inconclusive: 6.51 µM [cytotoxic, partial curve, poor fit]
70 | O=[N+]([O-])c1cc(F)c(N2CCCCC2)cc1N1CCOCC1 |  | inconclusive: 18.4 µM [cytotoxic, partial curve]
71 | N=C(N)c1ccc(N=Nc2c(O)ccc3c2[nH]c2ccccc23)cc1 | inactive: 24.7% | 
72 | NC(=O)c1cccc(-c2ccnc3c2CC(C(=O)NCc2ccc(F)c(F)c2)O3)c1 (centres undefined) | inactive: 4.83% | 
73 | C=CCn1c(SCC(=O)Nc2ccc(NC(=O)c3ccco3)c(OC)c2)nnc1-c1ccncc1 |  | inconclusive: 29.1 µM [rising, partial curve, poor fit]
74 | CCC(C)C(NC(=O)OCc1ccccc1)C(=O)NC(Cc1ccc(O)cc1)C(=O)OC (stereo not drawn) (Cbz-Ile-Tyr-OMe; configuration not given here) |  | inconclusive: 14.6 µM [rising, partial curve, poor fit]
